Experimental data from PubChem BioAssay AID1347076 (National Center for Advancing Translational Sciences (NCATS), 2019).
Among all 400,000 compounds or so, about 13,000 (3.2%) were called active. The shares of active, inactive and inconclusive entries below differ from those in the screen. Calls come from the whole dose curve; as a rule, active = well fitted cell-killing curve with a large enough effect; inconclusive = small, poorly fitted or top-dose-only effect, or effect the other way; inactive = flat fitted curve, though single readings scatter. A potency beside an inconclusive call is a rough fit, not a confirmed value.

Test: qHTS assay for MDR1-selective chemotherapeutics: Primary screen using the drug-selected MDR subline cells KB-V1; note: nearly all actives have a fitted effect of over 60% in size
Settings: KB-V1 MDR cells viability, CellTiter-Glo, 72 h; activity change, negative = cytotoxicity: at 46.1 µM (top of the series)
Summary of the method: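 Cytotoxicity via CellTiter-Glo luminescence after 72 h compound exposure at 37 degrees C. Cells: drug-selected KB-V1 line, DMEM phenol-red free plus 10% FBS. Compounds tested at multiple concentrations; normalized data fitted to concentration-effect curves.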
% is set by controls: 0 for no effect and ±100 for the full control effect; potency is the fitted concentration of half-maximal effect.

Structure (SMILES)	Potency	activity change, negative = cytotoxicity
O=C(NNC(=O)c1ccccc1O)c1cc2ccccc2o1	inconclusive: 29.1 µM [cytotoxic, single point]	
COc1ccccc1C1/C(=C(/O)c2ccc(OC(C)C)cc2)C(=O)C(=O)N1c1cc(C)on1 (stereo unspecified)	inconclusive: 25.9 µM [cytotoxic, partial curve, poor fit]	
CCN(CC)S(=O)(=O)c1cccc(C(=O)NCCCN2CCOCC2)c1	inconclusive: 29.1 µM [rising, partial curve, poor fit]	
CNC(=S)N1CCN(C(=O)C2CCCO2)CC1 (stereo unspecified)	inconclusive: 7.31 µM [rising, partial curve, poor fit]	
Cc1cc(S(=O)(=O)N2CCCCC2)c(C)s1		inactive: -7.13%
C=C(C)C(=O)Nc1cccc(C2=NOC3(C2)C[C@@H](C(N)=O)N(C(=O)[C@H]2CCC(=O)N2)C3)c1 (stereo partly specified)	inconclusive: 32.6 µM [rising, single point]	
O=C(O)c1nn(Cc2nc3ccccc3o2)c(=O)c2ccccc12		inactive: 7.41%
Brc1ccc(-c2nc(N/N=C/c3cccnc3)c3ccccc3n2)cc1	inconclusive: 8.2 µM [cytotoxic, partial curve, poor fit]	
C[C@H](CO)N1C[C@H](C)[C@@H](CN(C)C(=O)c2ccccc2)OCc2cnnn2CCCC1=O		inactive: 7.87%
COc1ccc(S(=O)(=O)N2CCN(c3ccc(F)cc3)CC2)cc1OC	inconclusive: 29.1 µM [cytotoxic, single point]	
Cc1ccc(S(=O)(=O)N2C3CC(c4ccccc4)N(S(=O)(=O)c4ccccc4Cl)CC3C(=O)C[C@H]2c2ccccc2)cc1 (stereo partly specified)		inactive: -17%
COc1ccc(OC)c(S(=O)(=O)Nc2cc(C)on2)c1	inconclusive: 20.6 µM [rising, single point]	
Cc1cc(C)n(CCc2nc3c4ccccc4nc(SCc4ccc(F)cc4)n3n2)n1		inactive: 6.73%
Cc1ccc(CNC(=O)c2c[nH]c3ccc(S(=O)(=O)N4CCOCC4)cc3c2=O)cc1	inconclusive: 2.91 µM [rising, full curve]	
CCOC(=O)c1cnc(SC)nc1Oc1cccc(NS(=O)(=O)c2ccccc2)c1	inconclusive: 1.84 µM [cytotoxic, full curve, poor fit]	
COC(=O)[C@]1(C)N[C@H](CN(C)S(=O)(=O)c2ccc(OC(F)(F)F)cc2)[C@@H]2C(=O)N(C)C(=O)[C@@H]21		inactive: 0.0002%
CCCCn1c(SCc2nnc(-c3ccccc3)o2)nc2c1c(=O)n(C)c(=O)n2C	active: 2.59 µM	
Nc1[nH]c(C(=O)c2ccccc2)c(-c2ccccc2Br)c1C(=O)NCCc1c[nH]c2ccccc12	inconclusive: 20.6 µM [cytotoxic, single point]	
CCN1C(=O)[C@H]2[C@@H](c3ccc(C)cc3)N3C(=O)N(c4cccc(F)c4)C(=O)[C@@]3(C)[C@H]2C1=O	inconclusive: 32.6 µM [rising, partial curve, poor fit]	
CC(=O)c1c(C)oc2ccc(NS(=O)(=O)c3ccc(C)cc3)cc12	inconclusive: 29.1 µM [cytotoxic, single point]	
CCN(CC)C(=O)CSc1nc2cc3c(cc2c(=O)n1Cc1ccco1)OCO3	inconclusive: 0.411 µM [cytotoxic, full curve, poor fit]	
C=CCn1c(SCC(=O)Nc2ccccc2OC)nnc1-c1ccccn1	inconclusive: 29.1 µM [cytotoxic, single point]	
N=c1c(C(=O)NC2CCCC2)cc2c(=O)n3ccccc3nc2n1CCN1CCOCC1		inactive: 9.47%
CC(C)(C)c1csc(CS(=O)(=O)c2ccccn2)n1		inactive: 2.68%

5 entries from above, bar-delimited.
Structure (SMILES) | Potency | activity change, negative = cytotoxicity
O=C(O)c1nn(Cc2nc3ccccc3o2)c(=O)c2ccccc12 |  | inactive: 7.41%
CCOC(=O)c1cnc(SC)nc1Oc1cccc(NS(=O)(=O)c2ccccc2)c1 | inconclusive: 1.84 µM [cytotoxic, full curve, poor fit] | 
CCCCn1c(SCc2nnc(-c3ccccc3)o2)nc2c1c(=O)n(C)c(=O)n2C | active: 2.59 µM | 
Nc1[nH]c(C(=O)c2ccccc2)c(-c2ccccc2Br)c1C(=O)NCCc1c[nH]c2ccccc12 | inconclusive: 20.6 µM [cytotoxic, single point] | 
CC(=O)c1c(C)oc2ccc(NS(=O)(=O)c3ccc(C)cc3)cc12 | inconclusive: 29.1 µM [cytotoxic, single point] | 

(cont.)

Structure (SMILES)	Potency	activity change, negative = cytotoxicity
Cc1ccc(S(=O)(=O)c2nnn3c2nc(NC2CCCCCC2)c2sccc23)cc1C	inconclusive: 29.1 µM [cytotoxic, single point]	
CCCCCCNC(=O)CSc1nccn1Cc1ccccc1	inconclusive: 23.1 µM [cytotoxic, single point]	
O=C1NC(=O)C2(CCC(C3CCCCC3)CC2)N1 (stereo unspecified)	active: 4.11 µM	
Cc1ccc(-c2csc(NC(=S)NC(=O)c3ccco3)n2)cc1		inactive: 14.8%
N#C/C(=C/c1ccc(N2CCCCC2)o1)C(=O)Nc1ccc2ccccc2c1	inconclusive: 14.6 µM [cytotoxic, single point]	
CS(=O)(=O)N(CC(=O)N1CCCC1)Cc1ccc(Cl)c(Cl)c1		inactive: -5.41%
CCOc1ccccc1C1CC(=O)Nc2cc3c(cc21)OCCO3 (stereo unspecified)	inconclusive: 20.6 µM [cytotoxic, partial curve, poor fit]	
Cc1ccc(/C=N/NC(=O)Nc2ccccc2)o1		inactive: 9.95%
Cc1cc(NC(=O)CSc2nc(C(C)C)nc3ccccc23)no1	inconclusive: 25.9 µM [cytotoxic, single point]	
N#CCCN1CCC(NC(=O)OCc2ccccc2)CCC1=O (stereo unspecified)	inconclusive: 18.4 µM [rising, single point]	
Cc1ccc(OC(=O)c2cccc(S(=O)(=O)N3CCCC3)c2)c(-n2nc3ccccc3n2)c1	inconclusive: 29.1 µM [rising, single point]	
COc1ccc(OCc2cccc(C(=O)O)c2)cc1	active: 18.4 µM	
CCOC(=O)c1sc2ncn(CC(=O)N(CC)CC)c(=O)c2c1C		inactive: -13.5%
Cc1ccc(C)n1CCN1CCN(CC(=O)Nc2ccc(S(N)(=O)=O)cc2)CC1		inactive: 0.348%
Cn1c(SCc2ccc(F)cc2)nnc1-c1ccncc1	inconclusive: 1.64 µM [cytotoxic, full curve, poor fit]	
Cc1cc(/C=C2/C(=N)N3C(=NC2=O)SN=C3S(C)(=O)=O)c(C)n1-c1ccccc1F	inconclusive: 29.1 µM [rising, single point]	
CCn1c(CNC(=O)COc2ccc(C(C)C)cc2)nnc1SCC(=O)Nc1cc(F)ccc1C	inconclusive: 32.6 µM [cytotoxic, single point]	
CCOc1cc(/C=C2\SC(=NC)N(C)C2=O)c(Br)cc1OC(C)=O	inconclusive: 25.9 µM [cytotoxic, partial curve, poor fit]	
COc1ccccc1NC(=O)C(=O)NCC1COc2ccccc2O1 (stereo unspecified)	inconclusive: 18.4 µM [cytotoxic, single point]	
CSCCC(NS(=O)(=O)c1cccc(C(F)(F)F)c1)C(=O)N(C)CCOc1ccc(Cl)cc1 (stereo unspecified)	inconclusive: 16.4 µM [cytotoxic, single point]	
O=C(Nc1ccccc1)c1ccccc1Oc1ccc(C(F)(F)F)cc1[N+](=O)[O-]	inconclusive: 18.4 µM [cytotoxic, partial curve]	
COc1ccc(CCNC(=O)CC2SC(=Nc3cc(C)cc(C)c3)NC2=O)cc1OC (stereo unspecified)	inconclusive: 29.1 µM [rising, single point]	
Cc1ccc(N2CC(C(=O)O)CC2=O)cc1 (stereo unspecified)		inactive: 0%
Cn1c2c(c(=O)n(C)c1=O)CS(=O)c1ccccc1N2 (stereo unspecified)		inactive: -1.03%

Structure (SMILES)	Potency	activity change, negative = cytotoxicity
O=C1C=C(c2ccc(Cl)cc2)C(=O)N1Nc1ccccc1	inconclusive: 25.9 µM [cytotoxic, single point]	
COc1ccc(-c2nnc(Sc3nc4ccccc4o3)c3ccccc23)cc1	inconclusive: 18.4 µM [cytotoxic, single point]	
COC(=O)c1ccc(N2CCc3ccccc32)c([N+](=O)[O-])c1		inactive: -1.12%
CCN1CCN(c2nc3c(C)cccn3c(=O)c2C=C(C#N)C#N)CC1		inactive: 10.4%
Cc1nn(-c2ccccc2)c(C)c1C(=O)NNC(=O)C(F)(F)F		inactive: 1.02%
COCCN1C(=O)N[C@@H](CCc2ccccc2)[C@H](C(=O)OC)[C@H]1C		inactive: -3.66%
O=C1CN(CN2CCCCC2)C(=O)CN1CN1CCCCC1		inactive: -2.23%
Cc1ccccc1N1C(=O)c2cccc3c(N(C)CCO)ccc(c23)C1=O	active: 18.4 µM	
CC1Cc2ccccc2C[N+]1(C)CC(=O)c1cccc([N+](=O)[O-])c1 (stereo unspecified)		inactive: -2.84%
Cc1ccc(S(=O)(=O)N2CCN(C(=O)c3cccc(-n4cccc4)c3)CC2)cc1	inconclusive: 8.2 µM [cytotoxic, partial curve, poor fit]	
Cc1ccc(NS(=O)(=O)c2ccc(Cl)c(N=Nc3c(O)[nH]c(=O)[nH]c3=O)c2)cc1Cl		inactive: -7.08%
CCOC(=O)CCC(NC(=O)c1ccc(Nc2nc3ccccc3nc2C(=O)OCC)cc1)C(=O)OCC (stereo unspecified)	active: 9.2 µM	
CN(Cc1cn(-c2ccccc2)nc1-c1ccc(F)cc1)C(=O)CCC(=O)O	inconclusive: 32.6 µM [rising, single point]	
N#CC1=C(N)Oc2n[nH]c(-c3ccc(F)cc3)c2C1c1cccnc1 (stereo unspecified)	inconclusive: 29.1 µM [rising, single point]	
CN(CC(=O)Nc1c(Cl)cccc1Cl)C(=O)CCCN1C(=O)c2ccccc2C1=O	inconclusive: 20.6 µM [cytotoxic, single point]	
COc1ccccc1-n1c(C)nc2cc(C(=O)NCCN3CCOCC3)ccc21	inconclusive: 2.31 µM [rising, full curve, poor fit]	
CCOC(=O)c1cccc(NS(=O)(=O)c2c(C(=O)N3CCCCCC3)c(C)n(C)c2C)c1	inconclusive: 0.206 µM [cytotoxic, full curve]	
O=C(CCC1CCCCC1=O)c1ccccc1 (stereo unspecified)		inactive: 7.65%
C=CCn1cc([N+](=O)[O-])nc1C	inconclusive: 2.59 µM [cytotoxic, partial curve, poor fit]	
COc1ccc(C(O)c2nccn2Cc2ccccc2)cc1 (stereo unspecified)		inactive: -12.2%
O=C(NCCN1CCCCC1)c1cc(Cl)ccc1Cl	inconclusive: 23.1 µM [rising, single point]	
O=C(Cc1nc2ccccc2[nH]1)c1ccc(Br)cc1		inactive: -0.996%
CC(=O)c1ccc(N2CCN(C(=O)c3cc(S(=O)(=O)N4CCCCCC4)cn3C)CC2)cc1	inconclusive: 5.8 µM [cytotoxic, partial curve]	
